{"source": "paper doi:10.1101/2023.08.18.553817", "binders": {"B1": {"name": "SCAMP3 (protein, UniProt O14828 1-347)", "chain": "MAQSRDGGNPFAEPSELDNPFQDPAVIQHRPSRQYATLDVYNPFETREPPPAYEPPAPAPLPPPSAPSLQPSRKLSPTEPKNYGSYSTQASAAAATAELLKKQEELNRKAEELDRRERELQHAALGGTATRQNNWPPLPSFCPVQPCFFQDISMEIPQEFQKTVSTMYYLWMCSTLALLLNFLACLASFCVETNNGAGFGLSILWVLLFTPCSFVCWYRPMYKAFRSDSSFNFFVFFFIFFVQDVLFVLQAIGIPGWGFSGWISALVVPKGNTAVSVLMLLVALLFTGIAVLGIVMLKRIHSLYRRTGASFQKAQQEFAAGVFSNPAVRTAAANAAAGAAENAFRAP"}, "B2": {"name": "ATG9A (protein, UniProt Q7Z3C6 1-839)", "chain": "MAQFDTEYQRLEASYSDSPPGEEDLLVHVAEGSKSPWHHIENLDLFFSRVYNLHQKNGFTCMLIGEIFELMQFLFVVAFTTFLVSCVDYDILFANKMVNHSLHPTEPVKVTLPDAFLPAQVCSARIQENGSLITILVIAGVFWIHRLIKFIYNICCYWEIHSFYLHALRIPMSALPYCTWQEVQARIVQTQKEHQICIHKRELTELDIYHRILRFQNYMVALVNKSLLPLRFRLPGLGEAVFFTRGLKYNFELILFWGPGSLFLNEWSLKAEYKRGGQRLELAQRLSNRILWIGIANFLLCPLILIWQILYAFFSYAEVLKREPGALGARCWSLYGRCYLRHFNELEHELQSRLNRGYKPASKYMNCFLSPLLTLLAKNGAFFAGSILAVLIALTIYDEDVLAVEHVLTTVTLLGVTVTVCRSFIPDQHMVFCPEQLLRVILAHIHYMPDHWQGNAHRSQTRDEFAQLFQYKAVFILEELLSPIVTPLILIFCLRPRALEIIDFFRNFTVEVVGVGDTCSFAQMDVRQHGHPQWLSAGQTEASVYQQAEDGKTELSLMHFAITNPGWQPPRESTAFLGFLKEQVQRDGAAASLAQGGLLPENALFTSIQSLQSESEPLSLIANVVAGSSCRGPPLPRDLQGSRHRAEVASALRSFSPLQPGQAPTGRAHSTMTGSGVDARTASSGSSVWEGQLQSLVLSEYASTEMSLHALYMHQLHKQQAQAEPERHVWHRRESDESGESAPDEGGEGARAPQSIPRSASYPCAAPRPGAPETTALHGGFQRRYGGITDPGTVPRVPSHFSRLPLGGWAEDGQSASRHPEPVPEEGSEDELPPQVHKV"}, "B3": {"name": "ATG9B (protein, UniProt Q674R7 1-924)", "chain": "MVSRMGWGGRRRRLGRWGDLGPGSVPLLPMPLPPPPPPSCRGPGGGRISIFSLSPAPHTRSSPSSFSPPTAGPPCSVLQGTGASQSCHSALPIPATPPTQAQPAMTPASASPSWGSHSTPPLAPATPTPSQQCPQDSPGLRVGPLIPEQDYERLEDCDPEGSQDSPIHGEEQQPLLHVPEGLRGSWHHIQNLDSFFTKIYSYHQRNGFACILLEDVFQLGQFIFIVTFTTFLLRCVDYNVLFANQPSNHTRPGPFHSKVTLSDAILPSAQCAERIRSSPLLVLLLVLAAGFWLVQLLRSVCNLFSYWDIQVFYREALHIPPEELSSVPWAEVQSRLLALQRSGGLCVQPRPLTELDIHHRILRYTNYQVALANKGLLPARCPLPWGGSAAFLSRGLALNVDLLLFRGPFSLFRGGWELPHAYKRSDQRGALAARWGRTVLLLAALNLALSPLVLAWQVLHVFYSHVELLRREPGALGARGWSRLARLQLRHFNELPHELRARLARAYRPAAAFLRTAAPPAPLRTLLARQLVFFAGALFAALLVLTVYDEDVLAVEHVLTAMTALGVTATVARSFIPEEQCQGRAPQLLLQTALAHMHYLPEEPGPGGRDRAYRQMAQLLQYRAVSLLEELLSPLLTPLFLLFWFRPRALEIIDFFHHFTVDVAGVGDICSFALMDVKRHGHPQWLSAGQTEASLSQRAEDGKTELSLMRFSLAHPLWRPPGHSSKFLGHLWGRVQQDAAAWGATSARGPSTPGVLSNCTSPLPEAFLANLFVHPLLPPRDLSPTAPCPAAATASLLASISRIAQDPSSVSPGGTGGQKLAQLPELASAEMSLHVIYLHQLHQQQQQQEPWGEAAASILSRPCSSPSQPPSPDEEKPSWSSDGSSPASSPRQQWGTQKARNLFPGGFQVTTDTQKEPDRASCTD"}}, "note": "No constants are given. Whether binding was seen depends on the method and setting. Binding seen in cells or lysates may run through a third protein. A yes stands for co-enrichment or nearness to the bait. Other partners may have been found. No binding means not detected with the bait.", "data": [{"biological_target": "FLAG-TAX1BP1^CC1 (K248E) (human) (UniProt Q86VP1)", "test": "affinity purification with mass spectrometry", "values": [{"binder": "B1", "binding": "binds"}, {"binder": "B2", "binding": "no binding"}, {"binder": "B3", "binding": "no binding"}]}, {"biological_target": "FLAG-TAX1BP1^CC1 (WT) (human) (UniProt Q86VP1)", "test": "affinity purification with mass spectrometry", "values": [{"binder": "B1", "binding": "binds"}, {"binder": "B2", "binding": "no binding"}, {"binder": "B3", "binding": "no binding"}]}]}
